According to patent US20210186970A1, “SELECTIVE CALCIUM CHANNEL ANTAGONISTS” (Northwestern University, priority 2011, published 2021):
Some results were stated once for a whole list of compounds, not compound by compound.

Protein sequences, listed by entry. Tags and fused reporters are not part of them.
UniProt P27732, whole entry: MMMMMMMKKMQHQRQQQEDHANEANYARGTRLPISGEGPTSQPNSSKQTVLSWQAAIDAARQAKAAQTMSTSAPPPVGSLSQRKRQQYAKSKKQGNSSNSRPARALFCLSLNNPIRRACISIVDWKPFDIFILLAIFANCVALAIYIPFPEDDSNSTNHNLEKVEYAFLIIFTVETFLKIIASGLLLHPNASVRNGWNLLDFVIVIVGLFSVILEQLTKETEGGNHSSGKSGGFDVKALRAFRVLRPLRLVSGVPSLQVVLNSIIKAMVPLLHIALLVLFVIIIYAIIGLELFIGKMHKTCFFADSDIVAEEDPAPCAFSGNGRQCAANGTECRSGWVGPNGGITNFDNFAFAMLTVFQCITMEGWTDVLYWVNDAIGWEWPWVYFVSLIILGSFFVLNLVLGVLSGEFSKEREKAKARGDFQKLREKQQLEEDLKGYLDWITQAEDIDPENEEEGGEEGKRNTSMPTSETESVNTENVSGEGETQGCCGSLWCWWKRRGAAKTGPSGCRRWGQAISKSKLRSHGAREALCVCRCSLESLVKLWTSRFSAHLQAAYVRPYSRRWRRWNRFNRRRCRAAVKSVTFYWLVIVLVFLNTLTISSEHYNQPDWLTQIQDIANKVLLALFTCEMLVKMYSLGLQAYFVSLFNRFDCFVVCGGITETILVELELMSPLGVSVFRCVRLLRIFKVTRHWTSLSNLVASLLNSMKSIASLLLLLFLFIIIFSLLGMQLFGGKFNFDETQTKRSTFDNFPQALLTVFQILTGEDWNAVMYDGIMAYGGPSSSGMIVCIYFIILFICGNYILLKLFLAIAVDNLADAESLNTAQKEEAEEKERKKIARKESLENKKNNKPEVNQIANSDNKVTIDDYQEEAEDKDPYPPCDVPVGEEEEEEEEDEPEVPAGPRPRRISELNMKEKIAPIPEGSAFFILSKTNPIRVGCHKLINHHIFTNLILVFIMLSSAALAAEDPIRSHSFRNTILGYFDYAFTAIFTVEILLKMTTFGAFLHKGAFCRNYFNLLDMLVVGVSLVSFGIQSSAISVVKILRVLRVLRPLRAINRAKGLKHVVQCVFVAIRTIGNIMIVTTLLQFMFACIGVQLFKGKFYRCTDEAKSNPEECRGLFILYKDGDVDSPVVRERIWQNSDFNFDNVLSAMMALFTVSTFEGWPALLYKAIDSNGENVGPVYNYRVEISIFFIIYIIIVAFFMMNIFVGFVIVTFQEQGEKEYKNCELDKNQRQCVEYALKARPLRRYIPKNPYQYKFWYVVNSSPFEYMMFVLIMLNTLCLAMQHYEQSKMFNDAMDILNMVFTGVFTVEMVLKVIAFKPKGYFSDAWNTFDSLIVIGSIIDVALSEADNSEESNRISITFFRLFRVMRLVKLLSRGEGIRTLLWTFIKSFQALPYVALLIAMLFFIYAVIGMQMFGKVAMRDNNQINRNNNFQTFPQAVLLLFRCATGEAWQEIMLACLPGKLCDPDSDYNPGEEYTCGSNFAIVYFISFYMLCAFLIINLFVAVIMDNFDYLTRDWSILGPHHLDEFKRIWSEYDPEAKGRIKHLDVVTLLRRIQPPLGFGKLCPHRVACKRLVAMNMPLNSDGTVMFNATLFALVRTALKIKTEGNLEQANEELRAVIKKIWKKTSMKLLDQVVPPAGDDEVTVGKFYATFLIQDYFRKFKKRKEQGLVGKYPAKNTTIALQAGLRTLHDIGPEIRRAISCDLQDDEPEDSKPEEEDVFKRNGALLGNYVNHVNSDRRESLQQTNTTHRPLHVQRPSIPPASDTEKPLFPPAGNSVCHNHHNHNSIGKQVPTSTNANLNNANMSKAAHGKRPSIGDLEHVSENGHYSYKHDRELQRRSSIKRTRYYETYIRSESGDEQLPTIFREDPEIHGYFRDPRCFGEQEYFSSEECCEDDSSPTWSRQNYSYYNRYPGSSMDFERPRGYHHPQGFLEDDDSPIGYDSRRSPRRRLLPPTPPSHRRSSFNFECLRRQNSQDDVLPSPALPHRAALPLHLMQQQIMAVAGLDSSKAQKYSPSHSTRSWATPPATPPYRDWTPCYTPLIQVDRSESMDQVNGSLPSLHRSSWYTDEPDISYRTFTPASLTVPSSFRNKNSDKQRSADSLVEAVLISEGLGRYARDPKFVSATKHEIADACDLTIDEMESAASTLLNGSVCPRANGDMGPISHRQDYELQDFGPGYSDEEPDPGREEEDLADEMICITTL

Target: T1, Cav1.3 L-type Ca channels (Rattus norvegicus, UniProt P27732)
T1 construct: expressed in transfected cells; host or cells: HEK293
Test: FLIPR Fluo-8 calcium assay, Cav1.3 channel inhibition in HEK293 cells
Assay type: cell-based
Conditions: ratio of IC50 values for the two cell lines

SMILES	selectivity for Cav1.3 over Cav1.2 [fold]
O=C1CC(=O)N(C2CCCCC2)C(=O)N1CCc1ccc(Cl)cc1 [Compound 1, N-(4-chlorophenethyl)-N′-cyclohexyl-pyrimidine-2,4,6-(1H,3H,5H)-trione]	> 34
O=C1CC(=O)N(C2CCCC2)C(=O)N1CCCCc1ccccc1 [Compound 2, N-cyclopentyl-N′-(4-phenylbutyl)-pyrimidine-2,4,6-(1H,3H,5H)-trione]	> 34
O=C1CC(=O)N(C2CCCCC2)C(=O)N1CCc1cccc(Cl)c1 [Compound 3, N-(3-chlorophenethyl)-N′-cyclohexyl-pyrimidine-2,4,6-(1H,3H,5H)-trione]	> 34
